{"sequences": {"note": "The chains behind the UniProt entries cited, without tags or fusion partners.", "UniProt P18054, whole entry, looked up": "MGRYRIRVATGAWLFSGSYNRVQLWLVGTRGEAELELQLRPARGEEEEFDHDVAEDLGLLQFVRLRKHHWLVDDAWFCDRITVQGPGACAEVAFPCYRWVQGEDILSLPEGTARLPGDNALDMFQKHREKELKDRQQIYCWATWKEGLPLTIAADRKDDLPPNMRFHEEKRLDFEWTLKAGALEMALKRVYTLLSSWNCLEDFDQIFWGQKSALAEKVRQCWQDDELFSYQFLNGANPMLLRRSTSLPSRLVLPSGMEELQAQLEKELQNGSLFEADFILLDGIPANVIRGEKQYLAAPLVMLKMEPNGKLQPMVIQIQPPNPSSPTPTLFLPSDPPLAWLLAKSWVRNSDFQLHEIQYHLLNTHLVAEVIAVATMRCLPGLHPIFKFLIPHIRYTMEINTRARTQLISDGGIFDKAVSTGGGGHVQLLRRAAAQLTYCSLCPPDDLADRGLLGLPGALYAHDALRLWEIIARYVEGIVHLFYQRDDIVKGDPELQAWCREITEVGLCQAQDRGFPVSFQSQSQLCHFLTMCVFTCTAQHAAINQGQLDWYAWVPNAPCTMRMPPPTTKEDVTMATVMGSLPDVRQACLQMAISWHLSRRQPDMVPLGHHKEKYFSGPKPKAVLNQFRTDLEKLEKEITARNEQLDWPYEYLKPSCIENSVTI"}, "source": "PubChem BioAssay AID1671190", "about": "(National Center for Advancing Translational Sciences (NCATS), 2021)", "note": "The campaign covered roughly 580,000 compounds. About 6,100 (1.1%) were called active. The shares of active, inactive and inconclusive entries below differ from those in the screen. The call rests on the fitted dose curve; in most records, active means well fitted inhibition curve with a large enough effect; inconclusive means small, poorly fitted or top-dose-only effect, or another doubt; inactive means no such curve, though single readings can be large or run the other way. Potencies beside an inconclusive call are fits to weak or partial responses and may not hold up. On the % scale 0 is the no-effect control and ±100 the full control effect; potency means the concentration at half of the fitted maximal effect.", "data": [{"target": "Polyunsaturated fatty acid lipoxygenase ALOX12 (Homo sapiens) (UniProt P18054)", "experiment": "Primary qHTS assay for inhibitors of human arachidonate 12S-lipoxygenase (ALOX12): Round 2", "details": "purified 12hLO, xylenol orange hydroperoxide absorbance; activity change, negative = inhibition: at 108 µM (top of the series) unless noted", "in_short": "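Hydroperoxide product was detected by ferrous iron/xylenol orange as the 573 to 405 nm absorbance ratio. Arachidonic acid at 40 uM (final) was turned over for 30 min at room temperature by 150 nM human 12hLO, pH 7.0 Hepes buffer, after 15 min compound preincubation.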", "values": [{"smiles": "c1cncc(CNc2ccnc(-c3ccc4c(c3)OCO4)n2)c1", "Potency": "inconclusive: 2.24 µM [inhibitor, full curve]"}, {"smiles": "O=C(CSc1n[nH]c(-c2ccncc2)n1)Nc1ccccn1", "Potency": "inconclusive: 1 µM [inhibitor, full curve, poor fit]"}, {"smiles": "COC(=O)c1ccc(NC(=O)C(=O)NCCc2sc(-c3cccc(F)c3)nc2C)cc1", "Potency": "inconclusive: 89.1 µM [inhibitor, partial curve, poor fit]"}, {"smiles": "CN(C)C[C@@H]1CN(Cc2ccccc2)C[C@H]1NC(=O)c1nccn1C", "activity change, negative = inhibition": "inactive: 93.6%"}, {"smiles": "S=C(NCCc1ccccc1)N/N=C/c1ccccc1Br", "Potency": "active: 35.5 µM"}, {"smiles": "COC(=O)c1ccc(NC(=O)NCc2cccn2Cc2ccc(F)cc2)cc1", "Potency": "inconclusive: 56.2 µM [inhibitor, partial curve, poor fit]"}, {"smiles": "CC12CC3CC(C)(C1)CC(NCc1ccccc1OCc1ccc(Cl)cc1Cl)(C3)C2", "Potency": "inconclusive: 39.8 µM [inhibitor, partial curve, poor fit]"}, {"smiles": "O=C(NC1CC1)C(NCc1ccccc1)c1ccc(F)cc1", "note": "(stereo not drawn)", "Potency": "inconclusive: 112 µM [inhibitor, single point]"}, {"smiles": "CC(=O)c1ccc(OCC(O)CN(C)Cc2cccs2)cc1", "note": "(stereo not drawn)", "Potency": "inconclusive: 3.98 µM [inhibitor, single point]"}, {"smiles": "CCc1ccc(CN2CCC3(Cc4ccccc4CNC3=O)C2)cc1", "note": "(stereo not drawn)", "Potency": "inconclusive: 39.8 µM [inhibitor, partial curve]"}, {"smiles": "COc1ccc(C2(c3ccc(OC(C)=O)cc3OC(C)=O)CC(c3ccccc3)NC(=S)N2)cc1", "note": "(stereo not drawn)", "Potency": "inconclusive: 39.8 µM [inhibitor, partial curve, poor fit]"}, {"smiles": "CC1=NOC(=O)/C1=C\\c1ccc(-c2ccccc2Br)o1", "Potency": "active: 5.62 µM"}, {"smiles": "COc1ccc(CCC(=O)N2CCCC(Cc3noc(-c4ccccc4)n3)C2)cc1", "note": "(stereo not drawn)", "activity change, negative = inhibition": "inactive: 18.1%"}, {"smiles": "CN(C)C(=O)c1ccc(NC(=O)COc2ccc(-c3ccc(Br)cc3)cc2)cc1", "Potency": "inconclusive: 44.7 µM [inhibitor, partial curve]"}, {"smiles": "S=C(NCc1ccco1)Nc1ccc(Oc2ccccc2)cc1", "Potency": "active: 44.7 µM"}, {"smiles": "CC(C)Oc1ccc(CNC(=O)CCCn2c(=O)c3cccn3c3ccccc32)cc1", "Potency": "inconclusive: 100 µM [inhibitor, partial curve, poor fit]"}, {"smiles": "CN(Cc1nccn1C)C(=O)c1cc(CN2CCC(Cc3ccccc3)CC2)on1", "Potency": "inconclusive: 12.6 µM [inhibitor, full curve]"}, {"smiles": "Cc1cccc(NS(=O)(=O)c2c(C)nn(C)c2C)c1C", "activity change, negative = inhibition": "inactive: 1.24%"}, {"smiles": "O=C(Cc1ccc(N(Cc2ccccc2)C(=O)c2ccco2)cc1)NCc1ccco1", "activity change, negative = inhibition": "inactive: 9.46%"}, {"smiles": "C/C(=N\\NC(=O)C(c1ccccc1)c1ccccc1)c1ccccn1", "activity change, negative = inhibition": "inactive: 21.4%"}, {"smiles": "CCCc1nnc(NC(=O)Cc2ccc(Br)cc2)s1", "activity change, negative = inhibition": "inactive: -4.8%"}, {"smiles": "COc1cccc(/C=C2/SC(=S)N(CC(=O)NNC(=O)c3ccccc3OC)C2=O)c1", "activity change, negative = inhibition": "inactive: -13.6%"}, {"smiles": "CNC(=O)c1ccc2c(c1)NC(C)(CCCCc1ccccc1)CO2", "note": "(stereo not drawn)", "Potency": "inconclusive: 112 µM [inhibitor, single point]"}, {"smiles": "CCOC(=O)C(CC)Oc1ccc2c(=O)c(Oc3ccccc3Br)coc2c1", "note": "(stereo not drawn)", "Potency": "inconclusive: 50.1 µM [inhibitor, partial curve]"}, {"smiles": "COc1ccc(N2CCN(C(=O)CCCCCn3c(=O)[nH]c4ccsc4c3=O)CC2)cc1", "activity change, negative = inhibition": "inactive: 5.48%"}, {"smiles": "Cc1ccc(NS(=O)(=O)c2ccc(Cl)s2)nc1", "Potency": "inconclusive: 39.8 µM [inhibitor, partial curve, poor fit]"}, {"smiles": "COc1ccc2c(c1)C1=NN(/C(C)=C\\C(C)=O)C(c3ccccc3)C1CC2", "note": "(stereo not drawn)", "Potency": "inconclusive: 44.7 µM [inhibitor, partial curve, poor fit]"}, {"smiles": "Cc1ccc(-c2cc(C(=O)Nc3ccc(S(=O)(=O)N4CCCCC4C)cc3)no2)cc1F", "note": "(stereo not drawn)", "activity change, negative = inhibition": "inactive: 0.113%"}, {"smiles": "C=CCn1c(SCCC)nc2c1c(=O)n(C)c(=O)n2C", "activity change, negative = inhibition": "inactive: -18.8%"}, {"smiles": "COCCOC1CCOC2(CCN(C(=O)COc3ccc(F)cc3)CC2)C1", "note": "(stereo not drawn)", "activity change, negative = inhibition": "inactive: 2.16%"}, {"smiles": "Cc1ccc(NC(=S)NCCC(c2ccccc2)c2ccccc2)cc1", "Potency": "inconclusive: 39.8 µM [inhibitor, partial curve, poor fit]"}, {"smiles": "CCNC(=O)[C@@H]1C[C@H](N)CN1C(=O)[C@@H](C)c1ccc2cc(OC)ccc2c1", "Potency": "inconclusive: 17.8 µM [inhibitor, full curve, poor fit]"}, {"smiles": "CCN(C(=O)c1cccc(Br)c1)C1CC1", "activity change, negative = inhibition": "inactive: 9.05%"}, {"smiles": "COc1cc(C(=O)NC(=S)Nc2ccc3ccccc3c2)cc(OC)c1OC", "Potency": "active: 17.8 µM"}, {"smiles": "O=C1C=C(NCc2ccco2)CC(c2ccc(Cl)cc2)C1", "note": "(stereo not drawn)", "Potency": "inconclusive: 12.6 µM [inhibitor, partial curve, poor fit]"}, {"smiles": "Cc1noc(C)c1-c1nccc(Nc2ccc(F)cc2)n1", "Potency": "inconclusive: 6.31 µM [inhibitor, full curve, poor fit]"}, {"smiles": "CC(=O)Oc1cc(C(=O)OCC(=O)NC23CC4CC(CC(C4)C2)C3)cc(OC(C)=O)c1OC(C)=O", "Potency": "inconclusive: 8.91 µM [inhibitor, full curve]"}, {"smiles": "CCOC(=O)c1c(NC(=O)CS(=O)(=O)c2ccc(C)cc2)sc2c1CCCCC2", "Potency": "inconclusive: 50.1 µM [inhibitor, partial curve, poor fit]"}, {"smiles": "CCOc1cccc(=O)c2c(C)n(-c3ccc(C(=O)O)cc3)c(C)c12", "Potency": "inconclusive: 39.8 µM [inhibitor, partial curve, poor fit]"}, {"smiles": "CC(=O)Nc1cccc(NC(=O)CC(C)c2ccccc2)c1", "note": "(stereo not drawn)", "Potency": "inconclusive: 31.6 µM [inhibitor, partial curve, poor fit]"}, {"smiles": "CCCCSc1nc2c(c(=O)[nH]c(=O)n2C)n1CC", "Potency": "inconclusive: 5.01 µM [inhibitor, full curve, poor fit]"}, {"smiles": "COc1ccc(NC(=O)CSCC(=O)Nc2cc(Cl)ccc2N2CCCC2)cc1", "Potency": "inconclusive: 50.1 µM [inhibitor, partial curve, poor fit]"}, {"smiles": "CCc1ccc(CNC(=O)c2ccc3c(c2)N=C(C)c2cc(C)ccc2S3)cc1", "Potency": "inconclusive: 141 µM [inhibitor, partial curve, poor fit]"}]}]}
